Laboratory results from PubChem BioAssay AID493014 (National Center for Advancing Translational Sciences (NCATS), 2011).
This is one part of the list. Shown are side measurements of this screen, not its main read-out; they come without a call. The list favours compounds with an active or inconclusive main result. Potencies come from curve fits of mixed quality, noted in brackets.

Test: qHTS Assay to Find Inhibitors of Chronic Active B-Cell Receptor Signaling
Conditions: ABC-DLBCL IkBa-CBG/CBR reporter, luminescence ratio (green luciferase fused to IkBa over red control in TMD8 lymphoma cells), 4 h
Outline: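 TMD8 ABC-DLBCL cells carrying doxycycline-inducible green luciferase fused to IkappaBalpha plus unfused red luciferase were exposed to compounds (up to 46 uM) for 4 hrs at 37C. Activity came from the overlap-corrected green/red luminescence ratio.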

[1] = measured here: CBR red luminescence, cell number
[2] = measured here: IkBa-CBG green luminescence

| SMILES | AC50 [1] | AC50 [2] |
| --- | --- | --- |
| COc1ccc(NC(=O)c2cc(Br)c(Br)s2)cn1 | 14.1 µM [falling, partial curve] | – |
| Cc1cccc(NC(=O)/C=C/c2cccs2)n1 | 2 µM [falling, partial curve, poor fit] | – |
| CCCn1nc(NC(=O)C(C)(C)C)c2cc3cc(OC)ccc3nc21 | 20 µM [falling, single point] | – |
| CCOC(=O)c1c(S(=O)(=O)NCC(=O)Nc2ccc(C)c(Cl)c2)c(C)n(C)c1C | 15.8 µM [falling, partial curve, poor fit] | – |
| CCCCOC(=O)c1ccc(NC(C)=O)cc1 | 8.91 µM [rising, partial curve, poor fit] | – |
| NCC(c1ccccc1Cl)c1c[nH]c2ccccc12 (stereo not drawn) | 15.8 µM [falling, single point] | – |
| Clc1ccc(Nc2nc(-c3cccs3)cs2)nc1 | 4.11 µM [falling, full curve] | – |
| COCCCNC(=S)N(Cc1cccnc1)Cc1ccc(OC)c(OC)c1 | 16.4 µM [rising, partial curve, poor fit] | – |
| O=C(Nc1cccnc1)c1cc(-c2ccc3c(c2)OCO3)on1 | 2.82 µM [falling, full curve] | – |
| CN(CC#CC(O)(c1ccccc1)c1ccccc1)C(C)(C)C | 2.82 µM [falling, full curve, poor fit] | – |
| Nc1ccc(S(N)(=O)=O)cc1N | 0.794 µM [rising, full curve] | – |
| Cc1cccc2c1-c1sc(C(=O)Nc3cccnc3)cc1CO2 | 10 µM [falling, partial curve, poor fit] | – |
| O=c1[nH]c2cc3c(cc2cc1CN(CCc1ccccc1)Cc1nnnn1CC1CCCO1)OCO3 (stereo not drawn) | 0.231 µM [falling, full curve, poor fit] | – |
| C/C(N)=C(/C#N)C(=O)CSc1cc(C)c2ccccc2n1 | 2.82 µM [falling, full curve] | – |
| CN1CCCNc2nc3ccccc3nc21 | 7.08 µM [falling, partial curve, poor fit] | – |
| CC(=O)c1ccc(N/C=C\C(=O)c2ccc(C)cc2)cc1 | 3.16 µM [rising, full curve, poor fit] | – |
| COc1ccccc1C(=O)NC(=S)N1CCc2ccccc21 | – | 12.6 µM [falling, single point] |
| c1ccc(N2CCN(c3ncnc4[nH]ncc34)CC2)cc1 | 5.62 µM [rising, single point] | – |
| CC1CCc2c(sc(NC(=O)c3ccco3)c2C(=O)O)C1 (stereo not drawn) | 0.398 µM [falling, full curve] | – |
| COc1ccccc1N/C=C1/Sc2cc(Cl)ccc2NC1=O | 0.794 µM [falling, partial curve, poor fit] | – |
| CCN(CC(=O)Nc1ccc(NC(C)=O)cc1)C(=O)COc1ccccc1-c1ccccc1 | 29.1 µM [falling, single point] | – |
| COc1ccccc1CN1CCN(C(CC(C)C)c2nnnn2Cc2cccs2)CC1 (stereo not drawn) | 16.4 µM [falling, partial curve, poor fit] | – |

Some of these compounds in order of length of the SMILES, descending.

| SMILES | AC50 [1] | AC50 [2] |
| --- | --- | --- |
| CCCn1nc(NC(=O)C(C)(C)C)c2cc3cc(OC)ccc3nc21 | 20 µM [falling, single point] | – |
| COCCCNC(=S)N(Cc1cccnc1)Cc1ccc(OC)c(OC)c1 | 16.4 µM [rising, partial curve, poor fit] | – |
| COc1ccccc1C(=O)NC(=S)N1CCc2ccccc21 | – | 12.6 µM [falling, single point] |

The list goes on.

| SMILES | AC50 [1] | AC50 [2] |
| --- | --- | --- |
| c1ccc(N2CCN(C3CCSC3)CC2)cc1 (stereo not drawn) | 32.6 µM [rising, single point] | – |
| CC(NC(=O)Nc1ccccc1O)(C(F)(F)F)C(F)(F)F | 3.26 µM [falling, partial curve] | – |
| CCc1cc2c(=O)nc3n(c2s1)Cc1ccccc1/C3=C(/O)c1ccc(F)cc1 | 29.1 µM [falling, single point] | – |
| COCCNC(=O)CN1CCC(NC(=O)c2ccco2)CC1 | 4.47 µM [falling, full curve, poor fit] | – |
| CCN(CC)CCN(Cc1cc2cc(C)c(C)cc2[nH]c1=O)C(=S)NCc1ccco1 | 5.01 µM [falling, partial curve] | – |
| O=C1COc2ccc(S(=O)(=O)NCCc3ccccc3)cc2N1 | 20 µM [rising, single point] | – |
| CCOC(=O)c1cc(-c2ccc(OC)cc2)nn1-c1ccc(C(=O)O)cc1 | 25.1 µM [falling, single point] | – |
| COc1cccc(NC(=O)c2ccccc2)c1 | 16.4 µM [falling, partial curve] | – |
| O=S(=O)(c1cccc(C(F)(F)F)c1)N1CCN(CC(O)COCc2ccccc2)CC1 (stereo not drawn) | 32.6 µM [falling, partial curve, poor fit] | – |
| COc1cccc(C(=O)N2CCN(Cc3cn[nH]c3-c3ccc(F)cc3F)CC2)c1 | 35.5 µM [falling, single point] | – |
| CCCCCc1ccc(CC(=O)Nn2c(C)nc3ccccc3c2=O)cc1 | 32.6 µM [falling, single point] | 20.6 µM [rising, partial curve, poor fit] |
| COC(=O)c1cc(OC)c(OC)cc1NC(=O)c1cnccn1 | 14.6 µM [rising, partial curve, poor fit] | – |
| C=CCN=C1NN=C(c2ccc3c(c2)OCCO3)CS1 | 0.891 µM [rising, partial curve, poor fit] | – |
| CCn1c(SCC(=O)Nc2cc(C)on2)nc2c1c(=O)n(C)c(=O)n2C | 29.1 µM [rising, single point] | – |
| O=C(Nc1sc2c(c1C(=O)O)CCC2)c1ccccc1 | 0.651 µM [falling, full curve, poor fit] | – |
| CCCNc1c(NS(=O)(=O)c2ccc3c(c2)CCCC3)c(=O)oc2ccccc12 | 15.8 µM [falling, partial curve] | – |
| CCn1c(SCC(=O)NCCOC)nc2sc3c(c2c1=O)CCCC3 | 0.398 µM [rising, full curve] | – |
| Cn1c(Cl)nc2c1c(=O)n(Cc1cccc(Br)c1)c(=O)n2C | 1.16 µM [falling, full curve, poor fit] | – |
| Cc1cc2ncn(C(=O)N3CCCCCC3)c2cc1C | 29.1 µM [rising, single point] | – |
| Cc1ccc(Nc2ccc([N+](=O)[O-])cn2)cc1Cl | 14.1 µM [rising, partial curve] | – |
| CCCOc1ccccc1OCC(=O)Nc1cccc(S(=O)(=O)NC2=NCCC2)c1 | 14.6 µM [falling, partial curve] | – |
| O=C(NCCc1ccccc1)c1cc2ncc(Br)cn2n1 | 3.66 µM [rising, full curve, poor fit] | – |

| SMILES | AC50 [1] | AC50 [2] |
| --- | --- | --- |
| CCOc1ccccc1NC(=O)CSc1nnnn1C1CCCC1 | 14.1 µM [falling, partial curve] | – |
| O=[N+]([O-])c1ccccc1N/N=C1\CCc2ccccc21 | 35.5 µM [rising, partial curve, poor fit] | – |
| COc1ccc(C(=O)NC(=S)N(Cc2ccccc2)Cc2ccccc2)cc1 | 3.55 µM [rising, single point] | – |
| CCc1ccccc1NC(=S)N1CCC(C(=O)c2ccc(F)cc2)CC1 | 35.5 µM [falling, single point] | – |
| CN(C)CCCn1c2c(c(SCC(=O)Nc3ccc4c(c3)OCCO4)nc1=O)CCC2 | 29.1 µM [falling, single point] | – |
| COc1ccc(F)cc1S(=O)(=O)N1CCC2(CC1)OCCN2S(=O)(=O)c1cccs1 | 18.4 µM [falling, partial curve, poor fit] | – |
| CCOC(=O)CC1(C)SC(NC(C)=O)=NN1C(C)=O (stereo not drawn) | 31.6 µM [falling, single point] | – |
| COc1ccc(N(CC(=O)N2CCCC(C)C2)S(=O)(=O)c2c(C)nn(C)c2C)cc1 (stereo not drawn) | 12.6 µM [rising, partial curve, poor fit] | – |
| COC(=O)c1cccc(Nc2c(-c3cc(Br)ccc3O)nc3nc[nH]n23)c1 | 31.6 µM [falling, partial curve, poor fit] | – |
| COc1ccc(C2=NN(C(=O)CSc3nnc(-c4ccccc4F)o3)C(c3ccco3)C2)cc1 (stereo not drawn) | 29.1 µM [rising, single point] | – |
| Cc1cc(C)cc(OCC(=O)Nc2ccc(-c3nc4ncccc4o3)cc2C)c1 | 35.5 µM [rising, single point] | – |
| O=C(CSc1n[nH]c(-c2ccccc2)n1)c1ccc(O)c(O)c1 | 20 µM [falling, single point] | – |
| O=c1cccc2n1Cc1cc3ccccc3nc1-2 | 0.326 µM [falling, full curve, poor fit] | – |
| CCOc1ccccc1NC(=O)c1c(NCc2ccc(OC)c(OC)c2OC)sc2c1CCC(C)C2 (stereo not drawn) | 17.8 µM [falling, single point] | – |
| O=C(N/N=C/c1cccc(O)c1)c1ccc(NC(=O)c2cccc([N+](=O)[O-])c2)cc1 | 22.4 µM [falling, partial curve, poor fit] | – |
| O=C(Nc1nccs1)c1ccc(COc2ccccc2Br)o1 | 23.1 µM [falling, partial curve, poor fit] | 7.31 µM [rising, partial curve, poor fit] |
| Cc1cc(N2CCOCC2)nc(-c2ccc(Br)cc2)n1 | 20.6 µM [rising, partial curve] | – |
| CC1CCCC(NS(=O)(=O)c2ccc3c(c2)OCCO3)C1C (stereo not drawn) | 35.5 µM [falling, single point] | – |
| CCN(CC)C(=O)[C@H]1CC(CC(=O)NCc2ccco2)C(=O)N2CCc3c([nH]c4ccc(OC)cc34)[C@]12C (stereo partly drawn) | 29.1 µM [rising, single point] | – |
| Cc1ccc(C)c(Cn2c(=O)n(CCCC(=O)NCc3ccco3)c(=O)c3sccc32)c1 | 0.103 µM [falling, full curve, poor fit] | – |
| COc1ccc(/C=N/NC(=O)C2C3CCCCC32C)cc1OC (stereo not drawn) | 12.6 µM [rising, single point] | 10 µM [falling, partial curve, poor fit] |
